Measured data: PubChem BioAssay AID504764 (Drosophila RNAi Screening Center, 2011)

Purpose: 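Knock-downs that raise or lower a Notch target reporter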 (primary screen)
Cells: Drosophila Kc167 cells
Reagents: long dsRNA against Drosophila genes
Duration: about 5 days (4 days dsRNA, then 24 h after transfection)
Treatment: transfection of constitutively active membrane-tethered Notch lacking the extracellular domain, read 24 h later
Read-out: 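Light from a Notch-responsive E(spl)m3 luciferase reporter under active Notch, with control-promoter and no-Notch reporter wells to normalise; raw counts from paired wells a and b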
Direction: induced reporter light, run 1, well a and induced reporter light, run 1, well b: higher = more light from the Notch target reporter with active Notch; control promoter light, run 1, well a and control promoter light, run 1, well b: higher = more light from the viral control promoter (cell number, transfection, viability); uninduced reporter light, run 1, well a: higher = more light from the Notch target reporter without active Notch
Active means: 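Wells with low control signal or poorly matching duplicates excluded; duplicates averaged; per source plate, z beyond ±2 for induced/control log2 ratio or beyond ±1.8 for induced/uninduced marks a hit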
Calls: active = modifier hit (raised or lowered Notch signal); inactive = not a hit
In all, the deposit lists about 22,000 reagents; shown is a random part of those with a known target gene and a result. Of all reagents, 403 (1.9%) were called active. 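Unnormalised raw counts per well; ratio z-scores behind the hit calls and whether each hit raises or lowers signal are not deposited.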 Reagents against one gene are numbered here. Names joined by + are all predicted targets of the reagent. Reagent sequences are not shown. Not stated in the record: the amount of reagent.

no.	gene	reagent no.	induced reporter light, run 1, well a	induced reporter light, run 1, well b	control promoter light, run 1, well a	control promoter light, run 1, well b	uninduced reporter light, run 1, well a	call
1	Gr8a (Gustatory receptor 8a)	1	1.17e5	1.28e5	2.36e5	2.36e5	8810	inactive
2	Lsp1alpha (Larval serum protein 1 alpha)	1	48235	41495	52775	38125	3465	inactive
3	pain (painless)	1	2.25e5	1.80e5	1.97e5	1.76e5	14478	inactive
4	Cyp310a1 (Cytochrome P450 310a1)	1	3.11e5	2.42e5	1.98e5	2.10e5	19510	inactive
5	trol (terribly reduced optic lobes)	1	60080	80960	83405	91285	5065	inactive
6	trol (terribly reduced optic lobes)	2	84940	1.14e5	1.17e5	1.42e5	7725	inactive
7	trol (terribly reduced optic lobes)	3	1.19e5	98050	1.70e5	2.16e5	7855	inactive
8	trol (terribly reduced optic lobes)	4	1.05e5	1.23e5	1.93e5	2.12e5	7935	inactive
9	CG16700	1	1.17e5	1.11e5	1.11e5	98080	12320	inactive
10	CG12857	1	93785	98385	1.33e5	1.12e5	8525	inactive
11	naz (nazgul)	1	1.79e5	1.78e5	1.88e5	1.74e5	12155	inactive
12	naz (nazgul)	2	1.53e5	1.61e5	1.65e5	1.55e5	10660	inactive
13	yrt (yurt)	1	1.44e5	1.40e5	1.06e5	1.04e5	10075	inactive
14	CG13049	1	1.71e5	1.58e5	1.60e5	2.24e5	9540	inactive
15	CG10226	1	1.40e5	1.01e5	63230	25365	10115	inactive
16	Ugt303B2 (UDP-glycosyltransferase family 303 member B2)	1	1.48e5	1.53e5	1.75e5	2.09e5	14355	inactive
17	CG3071	1	1.48e5	1.80e5	1.99e5	2.23e5	11115	inactive
18	Vps16B (Vacuolar protein sorting 16B)	1	1.16e5	1.26e5	1.75e5	1.53e5	11340	inactive
19	CG30154	1	1.30e5	1.22e5	1.50e5	1.38e5	11835	inactive
20	CG6059	1	1.85e5	2.27e5	2.33e5	2.53e5	13315	inactive
21	BomBc1 (Bomanin Bicipital 1)	1	81600	88485	1.37e5	1.23e5	10720	inactive
22	CG5532	1	2.46e5	1.88e5	3.54e5	3.51e5	15555	inactive
23	Ilk (Integrin linked kinase)	1	2.03e5	1.77e5	2.93e5	3.20e5	14480	inactive
24	l(2)k14505 (lethal (2) k14505)	1	1.75e5	1.95e5	1.80e5	2.01e5	15492	inactive
25	ocm (over compensating males)	1	98635	1.14e5	1.00e5	1.02e5	11855	active
26	CG7763	1	1.14e5	1.12e5	1.20e5	1.24e5	9628	inactive
27	CG5172	1	1.08e5	1.17e5	1.97e5	1.78e5	11405	inactive
28	c11.1	1	1.11e5	1.18e5	2.55e5	2.55e5	8930	inactive
29	CG6770	1	1.04e5	99380	82125	91735	7255	inactive
30	tbrd-3	1	1.54e5	1.49e5	1.49e5	1.56e5	11690	inactive
31	CG7215 + Prx5	1	2.02e5	1.55e5	1.73e5	1.66e5	14710	inactive
32	CG7215 + Prx5	2	8850	12350	9990	7115	815	inactive
33	CG17168	1	1.00e5	83560	1.09e5	1.15e5	8895	inactive
34	CG9550	1	1.60e5	1.77e5	1.53e5	1.69e5	10745	inactive
35	ODA-Dnal1 (Outer dynein arm dynein axonemal light chain 1)	1	1.96e5	2.22e5	2.52e5	2.30e5	20092	inactive
36	CG42564	1	91115	94095	98815	63545	8325	inactive
37	CG14572	1	1.45e5	1.33e5	1.37e5	1.03e5	8645	inactive
38	Alp4 (Alkaline phosphatase 4)	1	1.38e5	1.20e5	1.56e5	1.69e5	9605	inactive
39	Or85f (Odorant receptor 85f)	1	90960	75405	68945	49620	4535	inactive
40	CG8066	1	2.60e5	2.63e5	1.80e5	1.98e5	18078	inactive
41	CG34008	1	56435	43030	57900	52515	6915	inactive
42	Fancd2	1	2.24e5	1.86e5	2.00e5	2.18e5	14540	inactive
43	Osi20 (Osiris 20)	1	1.07e5	1.06e5	1.08e5	88480	7905	inactive
44	CG13794	1	87000	1.59e5	1.11e5	1.41e5	20935	inactive
45	CG33966	1	91190	1.14e5	1.90e5	1.69e5	6250	inactive
46	CG32793	1	84755	80775	1.25e5	1.18e5	5510	inactive
47	CG32793	2	96045	1.08e5	1.34e5	1.63e5	7115	inactive
48	Arfip (Arfaptin)	1	89270	91965	71380	78280	7620	inactive
49	ClpP (Caseinolytic protease proteolytic subunit)	1	1.70e5	1.88e5	1.70e5	1.90e5	14640	inactive
50	Sap30 (SIN3-associated polypeptide 30)	1	38960	29270	30020	20565	2560	inactive

Reformatted: entries from further up
CG34008 → induced reporter light, run 1, well a: 56435; induced reporter light, run 1, well b: 43030; control promoter light, run 1, well a: 57900; control promoter light, run 1, well b: 52515; uninduced reporter light, run 1, well a: 6915; call: inactive
Fancd2 → induced reporter light, run 1, well a: 2.24e5; induced reporter light, run 1, well b: 1.86e5; control promoter light, run 1, well a: 2.00e5; control promoter light, run 1, well b: 2.18e5; uninduced reporter light, run 1, well a: 14540; call: inactive
Osi20 (Osiris 20) → induced reporter light, run 1, well a: 1.07e5; induced reporter light, run 1, well b: 1.06e5; control promoter light, run 1, well a: 1.08e5; control promoter light, run 1, well b: 88480; uninduced reporter light, run 1, well a: 7905; call: inactive
CG13794 → induced reporter light, run 1, well a: 87000; induced reporter light, run 1, well b: 1.59e5; control promoter light, run 1, well a: 1.11e5; control promoter light, run 1, well b: 1.41e5; uninduced reporter light, run 1, well a: 20935; call: inactive
